# No constants are given. Whether binding was seen depends on the method and setting. Binding seen in cells or lysates may run through a third protein. Here binding means that the protein was enriched with, or labelled near, the bait; the list need not be complete.
# Target: mutant p53 (mutp53) R172H protein of Trp53^R172H/R172H knock-in mice (mouse (endogenous in tissues of Trp53^R172H/R172H mice)) (UniProt P02340)
# Assay: affinity purification with mass spectrometry; lysates of thymic lymphomas of Trp53^R172H/R172H mice (n = 3); IP with anti-p53 (FL393) beads, eluted with 0.1 M glycine, bands of a 4–15% SDS gel analysed by LC-MS/MS; normal thymus as control
row,binding,Binder
1,binds,"Aldh2 (protein, UniProt P47738 20-519) SAAATSAVPAPNHQPEVFCNQIFINNEWHDAVSRKTFPTVNPSTGEVICQVAEGNKEDVDKAVKAARAAFQLGSPWRRMDASDRGRLLYRLADLIERDRTYLAALETLDNGKPYVISYLVDLDMVLKCLRYYAGWADKYHGKTIPIDGDFFSYTRHEPVGVCGQIIPWNFPLLMQAWKLGPALATGNVVVMKVAEQTPLTALYVANLIKEAGFPPGVVNIVPGFGPTAGAAIASHEGVDKVAFTGSTEVGHLIQVAAGSSNLKRVTLELGGKSPNIIMSDADMDWAVEQAHFALFFNQGQCCCAGSRTFVQENVYDEFVERSVARAKSRVVGNPFDSRTEQGPQVDETQFKKILGYIKSGQQEGAKLLCGGGAAADRGYFIQPTVFGDVKDGMTIAKEEIFGPVMQILKFKTIEEVVGRANDSKYGLAAAVFTKDLDKANYLSQALQAGTVWINCYDVFGAQSPFGGYKMSGSGRELGEYGLQAYTEVKTVTVKVPQKNS"
2,binds,"Pdia6 (protein, UniProt Q922R8 20-440) LYSSSDDVIELTPSNFNREVIQSDGLWLVEFYAPWCGHCQRLTPEWKKAATALKDVVKVGAVNADKHQSLGGQYGVQGFPTIKIFGANKNKPEDYQGGRTGEAIVDAALSALRQLVKDRLGGRSGGYSSGKQGRGDSSSKKDVVELTDDTFDKNVLDSEDVWMVEFYAPWCGHCKNLEPEWAAAATEVKEQTKGKVKLAAVDATVNQVLASRYGIKGFPTIKIFQKGESPVDYDGGRTRSDIVSRALDLFSDNAPPPELLEIINEDIAKKTCEEHQLCVVAVLPHILDTGAAGRNSYLEVLLKLADKYKKKMWGWLWTEAGAQYELENALGIGGFGYPAMAAINARKMKFALLKGSFSEQGINEFLRELSFGRGSTAPVGGGSFPTITPREPWDGKDGELPVEDDIDLSDVELDDLEKDEL"
3,binds,"Fcgr4 (protein, UniProt A0A0B4J1G0 21-249) GLQKAVVNLDPKWVRVLEEDSVTLRCQGTFSPEDNSIKWFHNESLIPHQDANYVIQSARVKDSGMYRCQTALSTISDPVQLEVHMGWLLLQTTKWLFQEGDPIHLRCHSWQNRPVRKVTYLQNGKGKKYFHENSELLIPKATHNDSGSYFCRGLIGHNNKSSASFRISLGDPGSPSMFPPWHQITFCLLIGLLFAIDTVLYFSVRRGLQSPVADYEEPKIQWSKEPQDK"
4,binds,"St13 (protein, UniProt Q99L47 1-371) MDPRKVSELRAFVKMCRQDPSVLHTEEMRFLREWVESMGGKVPPATHKAKSEENTKEEKRDKTTEENIKTEELSSEESDLEIDNEGVIEPDTDAPQEMGDENAEITEEMMDEANEKKGAAIEALNDGELQKAIDLFTDAIKLNPRLAILYAKRASVFVKLQKPNAAIRDCDRAIEINPDSAQPYKWRGKAHRLLGHWEEAAHDLALACKLDYDEDASAMLREVQPRAQKIAEHRRKYERKREEREIKERIERVKKAREEHERAQREEEARRQSGSQYGSFPGGFPGGMPGNFPGGMPGMGGAMPGMAGMAGMPGLNEILSDPEVLAAMQDPEVMVAFQDVAQNPSNMSKYQSNPKVMNLISKLSAKFGGQS"
5,binds,"Cct8 (protein, UniProt P42932 1-548) MALHVPKAPGFAQMLKDGAKHFSGLEEAVYRNIQACKELAQTTRTAYGPNGMNKMVINRLEKLFVTNDAATILRELEVQHPAAKMIVMASHMQEQEVGDGTNFVLVFAGALLELAEELLRIGLSVSEVISGYEIACKKAHEILPELVCCSAKNLRDVDEVSSLLRTSIMSKQYGSETFLAKLIAQACVSIFPDSGNFNVDNIRVCKILGSGIYSSSVLHGMVFKKETEGDVTSVKDAKIAVYSCPFDGMITETKGTVLIKTAEELMNFSKGEENLMDAQVKAIAGTGANVIVTGGKVADIALHYANKYNIMLVRLNSKWDLRRLCKTVGATALPKLTPPVQEEMGHCDSVYLSEVGDTQVVVFKHEKEDGAISTIVLRGSTDNLMDDIERAVDDGVNTFKVLTRDKRLVPGGGATEIELAKQITSYGETCPGLEQYAIKKFAEAFEAIPRALAENSGVKANEVISKLYSVHQEGNKNVGLDIEAEVPAVKDMLEASILDTYLGKYWAIKLATNAAVTVLRVDQIIMAKPAGGPKPPSGKKDWDDDQND"
6,binds,"Cand1 (protein, UniProt Q6ZQ38 1-1230) MASASYHISNLLEKMTSSDKDFRFMATNDLMTELQKDSIKLDDDSERKVVKMILRLLEDKNGEVQNLAVKCLGPLVSKVKEYQVETIVDTLCTNMLSDKEQLRDISSIGLKTVIGELPPASSGSALAANVCKKITGRLTSAIAKQEDVSVQLEALDIMADMLSRQGGLLVNFHPSILTCLLPQLTSPRLAVRKRTIIALGHLVMSCGNIVFVDLIEHLLSELSKNDSMSTTRTYIQCIAAISRQAGHRIGEYLEKIIPLVVKFCNVDDDELREYCIQAFESFVRRCPKEVYPHVSTIINICLKYLTYDPNYNYDDEDEDENAMDADGGDDDDQGSDDEYSDDDDMSWKVRRAAAKCLDAVVSTRHEMLPEFYKTVSPALIARFKEREENVKADVFHAYLSLLKQTRPVQSWLCDPDAMEQGDTPLTMLQSQVPNIVKALHKQMKEKSVKTRQCCFNMLTELVNVLPGALTQHIPVLVPGIIFSLNDKSSSSNLKIDALSCLYVILCNHSPQVFHPHVQALVPPVVACVGDPFYKITSEALLVTQQLVKVIRPLDQPSSFDATPYIKDLFTCTIKRLKAADIDQEVKERAISCMGQIICNLGDNLGPDLSNTLQIFLERLKNEITRLTTVKALTLIAGSPLKIDLRPVLGEGVPILASFLRKNQRALKLGTLSALDILIKNYSDSLTAAMIDAVLDELPPLISESDMHVSQMAISFLTTLAKVYPSSLSKISGSILNELIGLVRSPLLQGGALSAMLDFFQALVVTGTNNLGYMDLLRMLTGPVYSQSTALTHKQSYYSIAKCVAALTRACPKEGPAVVGQFIQDVKNSRSTDSIRLLALLSLGEVGHHIDLSGQLELKSVILEAFSSPSEEVKSAASYALGSISVGNLPEYLPFVLQEITSQPKRQYLLLHSLKEIISSASVAGLKPYVENIWALLLKHCECAEEGTRNVVAECLGKLTLIDPETLLPRLKGYLISGSSYARSSVVTAVKFTISDHPQPIDPLLKNCIGDFLKTLEDPDLNVRRVALVTFNSAAHNKPSLIRDLLDSVLPHLYNETKVRKELIREVEMGPFKHTVDDGLDIRKAAFECMYTLLDSCLDRLDIFEFLNHVEDGLKDHYDIKMLTFLMLVRLSTLCPSAVLQRLDRLVEPLRATCTTKVKANSVKQEFEKQDELKRSAMRAVAALLTIPEAEKSPLMSEFQSQISSNPELAAIFESIQKDSSSTNLESMDTS"

# From article PMC4561369
